Laboratory results from the supplement of paper PMC12823440, “Inhibitors supercharge kinase turnover through native proteolytic circuits” (Nature, 2025).
Where a name gives a salt, the structure may show the parent alone. The list shows a part of the results. The calls rarely recur for the same compound in another form.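 Kinases, fused to nanoluciferase, were expressed in K562 cells; luminescence was measured every 4 h from 2 to 18 h as percent of control (DMSO = 100%, positive control = 0%). A time point is decreased if signal falls significantly (2 sigma). Hits were called by the authors by a rule that is not shown; the count of time points alone does not decide it.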

Sequences of proteins named here, by UniProt entry; tags and fusion partners are left off. A change or cut given only in a name is not applied to a line headed by its entry.
UniProt P49840: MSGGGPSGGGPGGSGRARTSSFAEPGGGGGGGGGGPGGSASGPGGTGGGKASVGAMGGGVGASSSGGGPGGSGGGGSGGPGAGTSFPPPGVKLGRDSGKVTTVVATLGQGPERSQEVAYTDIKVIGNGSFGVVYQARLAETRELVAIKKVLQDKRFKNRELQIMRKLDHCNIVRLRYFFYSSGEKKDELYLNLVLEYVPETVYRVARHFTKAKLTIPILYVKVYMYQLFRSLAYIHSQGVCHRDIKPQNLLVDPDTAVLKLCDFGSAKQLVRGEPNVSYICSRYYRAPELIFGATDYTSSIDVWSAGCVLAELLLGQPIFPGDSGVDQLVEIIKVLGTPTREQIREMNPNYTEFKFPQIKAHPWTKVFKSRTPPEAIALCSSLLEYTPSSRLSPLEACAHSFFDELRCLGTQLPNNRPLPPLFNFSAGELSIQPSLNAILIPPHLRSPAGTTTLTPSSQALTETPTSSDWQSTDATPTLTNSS

Target: GSK3A (UniProt P49840)
Experiment: number of time points (of 5) at which kinase-Nluc abundance scored as decreased, DMSO-normalised (count); higher = more persistent destabilization
Conditions: K562; 2-18 h

Compound | number of time points
Cc1cnc(Cl)nc1-c1ccc(N(Cc2ccc(CNC(=O)C(F)F)cc2)C(=O)c2ccc(O)cc2O)cc1 (10 µM) | 0
COc1cc2c(cc1OC)[C@@H]1C(=O)c3ccc4c(c3O[C@@H]1CO2)C=CC(C)(C)O4 [Deguelin] (10 µM) | 0
CC(C)(CCCCCC(O)CCCCCC(C)(C)C(=O)O)C(=O)O [Bempedoic acid] (10 µM) | 0
COc1cc2nnc(C(N)=O)c(Nc3ccc(C)cc3F)c2cc1N1CCN(CCO)CC1 (2.5 µM) | 0
O=C(Nc1ccc(Cl)cc1)C1CN(C(=O)c2cccc(-c3ccco3)c2)CC(F)(F)C1 (stereo not drawn) (2.5 µM) | 0
CC(=O)O[C@@H]1[C@@H](OC(C)=O)[C@@H](O)[C@H](Oc2c(-c3ccc(O)cc3)oc3cc(O)cc(O)c3c2=O)O[C@H]1C (10 µM) | 0
COc1cc2nc(-c3cc(F)ccc3O)nc(N[C@@H]3CNC[C@H]3C(C)(C)O)c2cc1OC (2.5 µM) | 0
C=CC(=O)Nc1cccc(Oc2nc(Nc3ccc(N4CCN(C)CC4)cc3OC)ncc2Cl)c1 (10 µM) | 0
C=CC(=O)Nc1cc(Nc2nccc(-c3cn(C)c4ccccc34)n2)c(OCC(F)(F)F)nc1N(C)CCNC [AST5902  (trimesylate)] (2.5 µM) | 0
O=C1C=CC2=C3c4cc(O)c(O)cc4CC3(O)COC2=C1O (stereo not drawn) [Hematein] (10 µM) | 0
CCC(F)(F)c1cc(N2CCC(S(C)(=O)=O)CC2)nc2sc(C(N)=O)c(N)c12 (10 µM) | 0
Cn1cc(C2=C(c3ccc(Cl)cc3Cl)C(=O)NC2=O)c2ccccc21 (10 µM) | 0
CCOC(=O)c1c(N2CCc3ccc(OC)cc3C2)oc(C=C2C=Nc3ncccc32)c1O (10 µM) | 0
O=C(COc1ccc(Cl)cc1)NC1CCC(NC(=O)COc2ccc(Cl)cc2)CC1 (stereo not drawn) [ISRIB (trans-isomer)] (10 µM) | 0
COc1ccc(CCNCc2ccc(OCc3ccc(Cl)nc3)c(OC)c2)cc1OC [SBE13 (Hydrochloride)] (10 µM) | 0
Cc1cccc(CC(=O)N2CCc3c2ccc(-c2cn(C)c4ncnc(N)c24)c3F)n1 (10 µM) | 0
COc1cc(N2CCC(N3CCN(C)CC3)CC2)ccc1Nc1ncnc(Nc2ccccc2S(=O)(=O)C(C)C)n1 (10 µM) | 0
CC(C)(Oc1ccc(Cl)cc1)C(=O)Nc1ccc(OCc2ccc(C#N)cc2)cc1 [AMPK activator 4] (10 µM) | 0
Cc1cc(N2CCOCC2)ccc1Nc1nc(NC2CCCCC2)c2[nH]cnc2n1 (10 µM) | 0

9 entries from above in another layout.
Compound	number of time points
COc1cc2c(cc1OC)[C@@H]1C(=O)c3ccc4c(c3O[C@@H]1CO2)C=CC(C)(C)O4 [Deguelin] (10 µM)	0
COc1cc2nnc(C(N)=O)c(Nc3ccc(C)cc3F)c2cc1N1CCN(CCO)CC1 (2.5 µM)	0
COc1cc2nc(-c3cc(F)ccc3O)nc(N[C@@H]3CNC[C@H]3C(C)(C)O)c2cc1OC (2.5 µM)	0
C=CC(=O)Nc1cccc(Oc2nc(Nc3ccc(N4CCN(C)CC4)cc3OC)ncc2Cl)c1 (10 µM)	0
CCC(F)(F)c1cc(N2CCC(S(C)(=O)=O)CC2)nc2sc(C(N)=O)c(N)c12 (10 µM)	0
CCOC(=O)c1c(N2CCc3ccc(OC)cc3C2)oc(C=C2C=Nc3ncccc32)c1O (10 µM)	0
O=C(COc1ccc(Cl)cc1)NC1CCC(NC(=O)COc2ccc(Cl)cc2)CC1 (stereo not drawn) [ISRIB (trans-isomer)] (10 µM)	0
COc1cc(N2CCC(N3CCN(C)CC3)CC2)ccc1Nc1ncnc(Nc2ccccc2S(=O)(=O)C(C)C)n1 (10 µM)	0
Cc1cc(N2CCOCC2)ccc1Nc1nc(NC2CCCCC2)c2[nH]cnc2n1 (10 µM)	0

Later entries

Compound | number of time points
COC(=O)N1CCN(C2CCC(Nc3nc(Nc4cnn(C)c4)nc4ccc(CC#N)nc34)CC2)CC1 (stereo not drawn) (10 µM) | 0
CN(C)CCn1cc2cc(NC(=O)c3cccc(C(F)(F)F)n3)c(C(C)(C)O)cc2n1 (10 µM) | 0
CCOc1cc(N2CCC(O)CC2)ccc1Nc1ncc2c(n1)N(C1CCCC1)CCC(=O)N2C (2.5 µM) | 0
CCC[C@H](C)Oc1nc(N)c2[nH]c(=O)n(CCCCCN3CCCCC3)c2n1 (10 µM) | 0
Fc1ccc(-c2nc3n(c2-c2ccncc2)CCS3)cc1 (10 µM) | 0
CC(ONC(=O)c1cc(C(F)(F)F)cc(C(F)(F)F)c1)C(=O)Nc1ccc(Cl)cc1 (stereo not drawn) (2.5 µM) | 0
O=C(Nc1ccccc1C(=O)NC1CCCCNC1=O)c1cc2ccccc2s1 (stereo not drawn) (10 µM) | 0
N#CC(=C(/N)Sc1ccccc1N)/C(C#N)=C(\N)Sc1ccccc1N (10 µM) | 0
Nc1ccc(O)c(C(=O)O)c1 [5-Aminosalicylic Acid] (10 µM) | 0
CNCc1ccccc1Sc1cccc2ccccc12 [IFN alpha-IFNAR-IN-1 (hydrochloride)] (10 µM) | 0
CCCCNc1ncc2c(-c3ccc(F)cc3)nn(CC3CCC(N)CC3)c2n1 (stereo not drawn) (2.5 µM) | 0
Cc1ncsc1-c1ccc(CNC(=O)[C@@H]2C[C@@H](O)CN2C(=O)[C@@H](NC(=O)COCCOc2ccc(-c3cc(Nc4ccc(OC(F)(F)F)cc4)ncn3)cc2)C(C)(C)C)cc1 (2.5 µM) | 0
Cn1cnc2c(F)c(Nc3ccc(Br)cc3F)c(C(=O)NOCCO)cc21 [Binimetinib] (10 µM) | 0
O=C1NC(=O)C(Cc2c[nH]c3c(Cl)cccc23)N1 (stereo not drawn) [Necroptosis-IN-1] (10 µM) | 0
C=CC(=O)N1CCC(c2ccc(C(N)=O)c(-c3ccc(Oc4ccccc4)cc3)n2)CC1 [Orelabrutinib] (2.5 µM) | 0
CN1C(=O)N[C@@H](Cc2c[nH]c3c(Cl)cccc23)C1=O [Necrostatin 2 (S enantiomer)] (10 µM) | 0
N#Cc1cc(-c2ccnc(Nc3ccc(N4CCOCC4)cc3)n2)ccc1OC1CCOCC1 (10 µM) | 0
COc1cccc(-c2cc(=O)c3ccccc3o2)c1N (10 µM) | 0
Nc1ccc(Sc2nc3ccccc3s2)c(Cl)c1 [KRAS inhibitor-9] (10 µM) | 0
